# Tested on: 5×FAD Tg mice
# Assay: General locomotor activities of 5×FAD Tg mice
# Format: in vivo, mouse
# Conditions: 0.1 mg/kg body wt/2 d intranasal, 30 d
row,Compound,"gross motor activities (number of movements, horizontal activity, rest time, stereotypy)"
1,"CC[C@H](C)[C@H](NC(=O)[C@H](CCCCN)NC(=O)[C@@H](NC(=O)[C@H](CCC(N)=O)NC(=O)[C@H](CCCNC(=N)N)NC(=O)[C@@H](N)CC(=O)O)[C@@H](C)CC)C(=O)N[C@@H](Cc1c[nH]c2ccccc12)C(=O)N[C@@H](Cc1ccccc1)C(=O)N[C@@H](CCC(N)=O)C(=O)N[C@@H](CC(N)=O)C(=O)N[C@@H](CCCNC(=N)N)C(=O)N[C@@H](CCCNC(=N)N)C(=O)N[C@@H](CCSC)C(=O)N[C@@H](CCCCN)C(=O)N[C@@H](Cc1c[nH]c2ccccc12)C(=O)N[C@@H](CCCCN)C(=O)N[C@@H](CCCCN)C(=O)N1CCC[C@H]1C(=O)NCC(=O)N[C@@H](Cc1c[nH]c2ccccc12)C(=O)N[C@@H](Cc1c[nH]cn1)C(=O)N[C@@H](CCC(N)=O)C(=O)N[C@@H](CC(=O)O)C(=O)O [mTIDM, drqikiwfqnrrmkwkkPGWHQD]",did not modulate
2,"CC[C@H](C)[C@H](NC(=O)[C@H](CCCCN)NC(=O)[C@@H](NC(=O)[C@H](CCC(N)=O)NC(=O)[C@H](CCCNC(=N)N)NC(=O)[C@@H](N)CC(=O)O)[C@@H](C)CC)C(=O)N[C@@H](Cc1c[nH]c2ccccc12)C(=O)N[C@@H](Cc1ccccc1)C(=O)N[C@@H](CCC(N)=O)C(=O)N[C@@H](CC(N)=O)C(=O)N[C@@H](CCCNC(=N)N)C(=O)N[C@@H](CCCNC(=N)N)C(=O)N[C@@H](CCSC)C(=O)N[C@@H](CCCCN)C(=O)N[C@@H](Cc1c[nH]c2ccccc12)C(=O)N[C@@H](CCCCN)C(=O)N[C@@H](CCCCN)C(=O)N1CCC[C@H]1C(=O)NCC(=O)N[C@@H](C)C(=O)N[C@@H](Cc1c[nH]cn1)C(=O)N[C@@H](CCC(N)=O)C(=O)N[C@@H](CCCCN)C(=O)O [wtTIDM, drqikiwfqnrrmkwkkPGAHQK]",did not modulate

# Source: patent US12251422B2, “Compositions and methods for treating neurological and other disorders” (Rush University Medical Center, priority 2018, dated 2025)
